Laboratory results taken from PubChem BioAssay AID330 (DTP/NCI, 2004).
The list does not hold the whole screen: its compounds were picked by chemical class. Other doses and runs of a compound may be missing. T/C is the treated group as % of the vehicle group. Where survival is the endpoint, the PubChem record calls one and a half times the control and up active, and a quarter to a half above the control has no call in these data; cut-offs in other NCI protocols can differ. Schedule codes are those of the source, taken here to give the interval after Q, in days (D) or hours (H), and the number of doses after X. Some entries were tested several times; their values stand side by side, smallest first. Some molecules as drawn cover several salts, stereoisomers or complexes of the source; a dose is that of the sample tested. Some entries show no survivor count and are marked so; the dose need not have been tolerated. Signs of the kind (2×) give the number of equal values in this list.

System: P388 leukemia ip, CD2F1 mice, survival T/C
Assay: NCI In Vivo Anticancer Drug Screen. Data for tumor model P388 Leukemia (intraperitoneal) in CD2F1 (CDF1) mice
Settings: T/C endpoint: median survival time, higher T/C = longer survival

With O=C(O)C(=O)Cc1ccc(N(CCCl)CCCl)cc1 the T/C (dose: 0.75 mg/kg/injection, schedule: Q04DX003 (ip), vehicle: saline with Tween-80) was 104 % of control [survivor count not shown], the T/C (dose: 1.5 mg/kg/injection, schedule: Q04DX003 (ip), vehicle: saline with Tween-80) was 109 % of control [survivor count not shown] and the T/C (dose: 3.0 mg/kg/injection, schedule: Q04DX003 (ip), vehicle: saline with Tween-80) was 127 % of control [survivor count not shown]. The T/C (dose: 6.25 mg/kg/injection, schedule: Q04DX003 (ip), vehicle: saline with Tween-80) was 160 % of control [survivor count not shown], the T/C (dose: 12.5 mg/kg/injection, schedule: Q01DX009 (ip), vehicle: saline + alcohol) was 177 % of control [survivor count not shown] and the T/C (dose: 12.5 mg/kg/injection, schedule: Q04DX003 (ip), vehicle: saline with Tween-80) was 165 % of control [survivor count not shown]. For the same compound, the T/C (dose: 25.0 mg/kg/injection, schedule: Q01DX009 (ip), vehicle: saline + alcohol) was 200 % of control [survivor count not shown], the T/C (dose: 25.0 mg/kg/injection, schedule: Q04DX003 (ip), vehicle: saline with Tween-80) was 175 [survivor count not shown] and 210 % of control [survivor count not shown] and the T/C (dose: 50.0 mg/kg/injection, schedule: Q01DX009 (ip), vehicle: saline + alcohol) was 95 % of control [survivor count not shown]. The T/C (dose: 50.0 mg/kg/injection, schedule: Q04DX003 (ip), vehicle: saline with Tween-80) was 245 % of control [survivor count not shown].

With O[C@@H](CNCCCl)[C@@H](O)CNCCCl the T/C (dose: 10.0 mg/kg/injection, schedule: Q01DX009 (ip), vehicle: saline sonified) was 186 % of control [survivor count not shown], the T/C (dose: 20.0 mg/kg/injection, schedule: Q01DX009 (ip), vehicle: saline sonified) was 254 % of control [survivor count not shown] and the T/C (dose: 26.4 mg/kg/injection, schedule: Q04DX003 (ip), vehicle: saline with Tween-80) was 204 % of control [survivor count not shown]. For the same compound, the T/C (dose: 37.5 mg/kg/injection, schedule: Q04DX003 (ip), vehicle: saline) was 158 % of control [survivor count not shown], the T/C (dose: 40.0 mg/kg/injection, schedule: Q01DX009 (ip), vehicle: saline sonified) was 95 % of control [survivor count not shown] and the T/C (dose: 40.0 mg/kg/injection, schedule: Q04DX003 (ip), vehicle: saline with Tween-80) was 213 % of control [survivor count not shown]. For the same compound, the T/C (dose: 60.0 mg/kg/injection, schedule: Q04DX003 (ip), vehicle: saline with Tween-80) was 209 % of control [survivor count not shown].

For OC1OC(CN(CCCl)CCCl)C(O)C1O (stereo not drawn), the T/C (dose: 0.78 mg/kg/injection, schedule: Q01DX009 (ip), vehicle: saline) was 101 % of control [survivor count not shown] and the T/C (dose: 1.56 mg/kg/injection, schedule: Q01DX009 (ip), vehicle: saline) was 101 % of control [survivor count not shown].

For ClCCN1CCN(CCCl)CC1, the T/C (dose: 0.03 mg/kg/injection, schedule: Q01DX005 (ip), vehicle: saline) was 130 % of control, the T/C (dose: 0.06 mg/kg/injection, schedule: Q01DX005 (ip), vehicle: saline) was 166 % of control and the T/C (dose: 0.12 mg/kg/injection, schedule: Q01DX009 (ip), vehicle: saline) was 110 % of control [survivor count not shown]. The T/C (dose: 0.25 mg/kg/injection, schedule: Q01DX005 (ip), vehicle: saline, evaluated on day 30) was 223 % of control, the T/C (dose: 0.25 mg/kg/injection, schedule: Q01DX005 (ip), vehicle: saline, evaluated on day 45) was 124 % of control and the T/C (dose: 0.25 mg/kg/injection, schedule: Q01DX009 (ip), vehicle: saline) was 120 % of control [survivor count not shown]. The T/C (dose: 0.5 mg/kg/injection, schedule: Q01DX005 (ip), vehicle: saline) was 118 and 138 % of control, the T/C (dose: 0.5 mg/kg/injection, schedule: Q01DX009 (ip), vehicle: saline) was 145 % of control [survivor count not shown] and the T/C (dose: 1.0 mg/kg/injection, schedule: Q01DX005 (ip), vehicle: saline) was 133 and 163 % of control. The T/C (dose: 1.0 mg/kg/injection, schedule: Q01DX009 (ip), vehicle: saline) was 167 % of control [survivor count not shown], the T/C (dose: 2.0 mg/kg/injection, schedule: Q01DX005 (ip), vehicle: saline) was 163 and 209 % of control and the T/C (dose: 2.0 mg/kg/injection, schedule: Q01DX009 (ip), vehicle: saline) was 114 % of control [survivor count not shown]. For the same compound, the T/C (dose: 4.0 mg/kg/injection, schedule: Q01DX005 (ip), vehicle: saline) was 209 % of control, the T/C (dose: 6.0 micrograms/kg/injection, schedule: Q01DX009 (ip), vehicle: saline) was 99 [survivor count not shown] and 104 % of control [survivor count not shown] and the T/C (dose: 12.0 micrograms/kg/injection, schedule: Q01DX009 (ip), vehicle: saline) was 102 % of control [survivor count not shown]. The T/C (dose: 12.5 micrograms/kg/injection, schedule: Q01DX009 (ip), vehicle: saline) was 100 % of control [survivor count not shown], the T/C (dose: 25.0 micrograms/kg/injection, schedule: Q01DX009 (ip), vehicle: saline) was 100 % of control [survivor count not shown] (2×) and the T/C (dose: 50.0 micrograms/kg/injection, schedule: Q01DX009 (ip), vehicle: saline) was 102 [survivor count not shown] and 106 % of control [survivor count not shown]. The T/C (dose: 100.0 micrograms/kg/injection, schedule: Q01DX009 (ip), vehicle: saline) was 107 [survivor count not shown] and 116 % of control [survivor count not shown], the T/C (dose: 125.0 micrograms/kg/injection, schedule: Q01DX009 (ip), vehicle: saline) was 127 % of control [survivor count not shown] and the T/C (dose: 200.0 micrograms/kg/injection, schedule: Q01DX009 (ip), vehicle: saline) was 107 [survivor count not shown] and 111 % of control [survivor count not shown]. For the same compound, the T/C (dose: 250.0 micrograms/kg/injection, schedule: Q01DX009 (ip), vehicle: saline) was 148 % of control [survivor count not shown], the T/C (dose: 500.0 micrograms/kg/injection, schedule: Q01DX009 (ip), vehicle: saline) was 180 % of control [survivor count not shown] and the T/C (dose: 1000.0 micrograms/kg/injection, schedule: Q01DX009 (ip), vehicle: saline) was 216 % of control [survivor count not shown]. For the same compound, the T/C (dose: 2000.0 micrograms/kg/injection, schedule: Q01DX009 (ip), vehicle: saline) was 100 % of control [survivor count not shown].

In the case of CC(Cl)CN(CC(C)Cl)c1ccc2ccccc2c1 (stereo not drawn), the T/C (dose: 100.0 mg/kg/injection, schedule: Q01DX001 (ip), vehicle: Klucel (hydroxypropylcellulose) (HPC)) is reported as 109 % of control [survivor count not shown], the T/C (dose: 200.0 mg/kg/injection, schedule: Q01DX001 (ip), vehicle: Klucel (hydroxypropylcellulose) (HPC)) is reported as 103 % of control [survivor count not shown] and the T/C (dose: 400.0 mg/kg/injection, schedule: Q01DX001 (ip), vehicle: Klucel (hydroxypropylcellulose) (HPC)) is reported as 117 % of control [survivor count not shown].

For O=NN(CCSCCCl)C(=O)NC1CCCCC1, the T/C (dose: 1.56 mg/kg/injection, schedule: Q01DX009 (ip), vehicle: saline with Tween-80) was 121 % of control, the T/C (dose: 3.12 mg/kg/injection, schedule: Q01DX009 (ip), vehicle: saline with Tween-80, evaluated on day 30) was 133 and 141 % of control and the T/C (dose: 3.12 mg/kg/injection, schedule: Q01DX009 (ip), vehicle: saline with Tween-80, evaluated on day 35) was 108 % of control. For the same compound, the T/C (dose: 6.25 mg/kg/injection, schedule: Q01DX009 (ip), vehicle: saline with Tween-80, evaluated on day 30) was 151 and 165 % of control, the T/C (dose: 6.25 mg/kg/injection, schedule: Q01DX009 (ip), vehicle: saline with Tween-80, evaluated on day 35) was 116 % of control and the T/C (dose: 12.5 mg/kg/injection, schedule: Q01DX009 (ip), vehicle: saline with Tween-80, evaluated on day 30) was 169 % of control. For the same compound, the T/C (dose: 12.5 mg/kg/injection, schedule: Q01DX009 (ip), vehicle: saline with Tween-80, evaluated on day 35) was 148 % of control, the T/C (dose: 25.0 mg/kg/injection, schedule: Q01DX009 (ip), vehicle: saline with Tween-80, evaluated on day 30) was 223 % of control and the T/C (dose: 25.0 mg/kg/injection, schedule: Q01DX009 (ip), vehicle: saline with Tween-80, evaluated on day 35) was 178 % of control. The T/C (dose: 50.0 mg/kg/injection, schedule: Q01DX009 (ip), vehicle: saline with Tween-80, evaluated on day 30) was 98 % of control and the T/C (dose: 50.0 mg/kg/injection, schedule: Q01DX009 (ip), vehicle: saline with Tween-80, evaluated on day 35) was 99 % of control.
